From publication PMC11383612
No constants are given. Whether binding was seen depends on the method and setting. In cells and extracts the contact can be indirect. Some binding calls cover weakened binding; strength is not graded here.

Sequences of proteins named here, by UniProt entry; tags and fusion partners are left off.
UniProt Q3TKT4: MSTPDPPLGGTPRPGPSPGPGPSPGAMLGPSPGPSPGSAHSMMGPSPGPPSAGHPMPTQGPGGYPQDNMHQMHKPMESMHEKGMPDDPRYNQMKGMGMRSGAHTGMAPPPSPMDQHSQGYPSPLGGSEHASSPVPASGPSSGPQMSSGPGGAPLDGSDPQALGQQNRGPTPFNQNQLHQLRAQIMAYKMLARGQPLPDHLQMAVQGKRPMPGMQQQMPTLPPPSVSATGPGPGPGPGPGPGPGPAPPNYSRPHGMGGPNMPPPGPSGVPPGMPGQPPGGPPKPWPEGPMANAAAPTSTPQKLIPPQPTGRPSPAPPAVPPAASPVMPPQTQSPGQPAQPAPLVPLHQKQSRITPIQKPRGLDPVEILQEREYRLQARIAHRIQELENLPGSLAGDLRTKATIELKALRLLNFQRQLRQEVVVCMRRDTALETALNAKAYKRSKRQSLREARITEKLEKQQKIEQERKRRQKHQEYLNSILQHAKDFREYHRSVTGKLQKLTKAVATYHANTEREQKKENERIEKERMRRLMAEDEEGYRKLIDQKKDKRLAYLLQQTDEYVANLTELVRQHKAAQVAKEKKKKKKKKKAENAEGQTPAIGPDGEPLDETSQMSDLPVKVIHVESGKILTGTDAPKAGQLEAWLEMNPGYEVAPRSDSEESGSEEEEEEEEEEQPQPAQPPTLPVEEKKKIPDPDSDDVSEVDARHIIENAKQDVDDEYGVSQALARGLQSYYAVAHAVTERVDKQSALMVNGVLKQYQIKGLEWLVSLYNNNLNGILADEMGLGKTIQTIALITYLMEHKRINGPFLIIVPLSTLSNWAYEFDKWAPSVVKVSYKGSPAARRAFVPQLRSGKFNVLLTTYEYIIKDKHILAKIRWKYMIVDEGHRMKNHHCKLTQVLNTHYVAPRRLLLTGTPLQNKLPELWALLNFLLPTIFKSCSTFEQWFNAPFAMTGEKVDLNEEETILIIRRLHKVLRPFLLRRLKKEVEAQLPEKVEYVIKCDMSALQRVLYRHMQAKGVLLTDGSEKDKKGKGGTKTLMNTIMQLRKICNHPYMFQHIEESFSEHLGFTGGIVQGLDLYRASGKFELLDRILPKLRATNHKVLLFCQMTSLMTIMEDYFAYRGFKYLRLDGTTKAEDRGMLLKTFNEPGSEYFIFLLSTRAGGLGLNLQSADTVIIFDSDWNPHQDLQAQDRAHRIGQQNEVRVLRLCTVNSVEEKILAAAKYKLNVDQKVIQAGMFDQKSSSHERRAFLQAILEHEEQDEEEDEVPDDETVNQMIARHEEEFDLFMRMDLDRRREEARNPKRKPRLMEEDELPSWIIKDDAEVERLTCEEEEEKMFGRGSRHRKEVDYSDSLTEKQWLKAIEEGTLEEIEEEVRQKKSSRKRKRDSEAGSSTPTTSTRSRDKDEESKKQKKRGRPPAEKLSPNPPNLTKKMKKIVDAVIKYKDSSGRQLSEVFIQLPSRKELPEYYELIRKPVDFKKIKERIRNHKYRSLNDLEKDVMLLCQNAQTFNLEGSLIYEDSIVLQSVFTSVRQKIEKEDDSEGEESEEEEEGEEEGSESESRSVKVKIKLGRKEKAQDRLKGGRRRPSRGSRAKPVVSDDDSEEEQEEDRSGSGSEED

Key:
[1] = biological target: BRG1 (also known as SMARCA4) (mouse (endogenous in OT-I CD8+ T cells)) (UniProt Q3TKT4); test: co-IP; anti-BRG1 immunoprecipitation from naive CD8+ T cells, Western blot
[2] = biological target: BRG1 (also known as SMARCA4) (mouse (endogenous in OT-I CD8+ T cells)) (UniProt Q3TKT4); test: co-IP; anti-BRG1 antibody or rabbit normal IgG, protein A/G agarose beads, 4 °C, Western blot; lysates of effector OT-I CD8+ T cells (PR8-OVA, day 8 p.i.), BRD7 WT (Brd7fl/fl) and BRD7-deficient

binding [2]: binds
B1: bromodomain-containing protein 7 (BRD7) (protein, UniProt O88665 1-651)
chain: MGKKHKKHKSDRHFYEEYVEKPLKLVLKVGGSEVTELSTGSSGHDSSLFEDRSDHDKHKDRKRKKRKKGEKQAPGEEKGRKRRRVKEDKKKRDRDRAENEVDRDLQCHVPIRLDLPPEKPLTSSLAKQEEVEQTPLQEALNQLMRQLQRKDPSAFFSFPVTDFIAPGYSMIIKHPMDFSTMKEKIKNNDYQSIEELKDNFKLMCTNAMIYNKPETIYYKAAKKLLHSGMKILSQERIQSLKQSIDFMSDLQKTRKQKERTDACQSGEDSGCWQREREDSGDAETQAFRSPAKDNKRKDKDVLEDKWRSSNSEREHEQIERVVQESGGKLTRRLANSQCEFERRKPDGTTTLGLLHPVDPIVGEPGYCPVRLGMTTGRLQSGVNTLQGFKEDKRNRVTPVLYLNYGPYSSYAPHYDSTFANISKDDSDLIYSTYGEDSDLPNNFSISEFLATCQDYPYVMADSLLDVLTKGGHSRSLQDLDMSSPEDEGQTRALDTAKEAEITQIEPTGRLESSSQDRLTALQAVTTFGAPAEVFDSEEAEVFQRKLDETTRLLRELQEAQNERLSTRPPPNMICLLGPSYREMYLAEQVTNNLKELTQQVTPGDVVSIHGVRKAMGISVPSPIVGNSFVDLTGECEEPKETSTAECGPDAS
binding [1]: no binding (condition: in naive CD8+ T cells)
